The other results are listed elsewhere or left out.
Assay: NALP1 inflammasome inhibitors in reconstituted yeast, colorimetric, S. cerevisiae, triplicate retest (AID 2071)
Conditions: S. cerevisiae NALP1/ASC/caspase-1 growth, X-gal OD620, 72 h, at 20 µM, stronger effect = higher value
`CCN1CCC(Nc2cccc(F)c2)CC1` gave an inhibition of 4.3%.

Source: PubChem BioAssay AID2071 (Sanford-Burnham Center for Chemical Genomics, 2009)
